This test concerns Salmonella enterica serovar Typhimurium SL1344. Put plainly: bacterial growth OD600 after 18 h with compound and polymyxin B; higher = more bacterial growth (less inhibition). As to conditions: 50 µM, Mueller-Hinton broth.

SMILES strings stand for the structures. Some of the results follow. These are raw signals, not scaled to a control.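 First-pass screen: polymyxin B was added at a level that permeabilizes the Salmonella outer membrane while sparing the inner membrane. DMSO wells, with and without polymyxin B, defined maximum growth. Because plates differed from one another, each plate's data were ranked separately and the compounds with the lowest OD600 were carried forward as hits.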

In the case of `Oc1cccc(CN2CCOc3ccc(C(O)Cc4ccccc4)cc3C2)c1` (stereo unspecified), the “bacterial growth OD600” value (polymyxin B 0.75 µg/mL) turned out to be 0.736.
Take `COc1ccc(Cc2noc(CN(C)CCc3ccccc3)n2)cc1OC`: where the note is “polymyxin B 1 µg/mL”, the “bacterial growth OD600” value came out at 0.877.
In the case of `C=C(C)[C@@H]1CC=C(CN2CCC(N3CCC(C(=O)N4CCCC4)CC3)CC2)CC1`, the “bacterial growth OD600” value (polymyxin B 0.75 µg/mL) came to 0.829.
As for `CC(C)CN(C)C(=O)c1coc(COc2cccc(C(F)(F)F)c2)n1`, the “bacterial growth OD600” value (polymyxin B 1 µg/mL) is 0.85.
Consider `CN(C)C(=O)c1ccc(N2CCC(NCCC(c3ccc(F)cc3)c3ccco3)CC2)cc1` (stereo unspecified), for which the “bacterial growth OD600” value (polymyxin B 0.75 µg/mL) stood at 0.656.
With `O=C(Cc1ccc(Cl)cc1)N1CCC(C2(c3ccccn3)NC(=O)N(CC3CCCO3)C2=O)CC1` (stereo unspecified), the “bacterial growth OD600” value (polymyxin B 0.75 µg/mL) stood at 0.846.
With `COCC1CCCCN1C(=O)c1oc2ccc(C)cc2c1C` (stereo unspecified), the “bacterial growth OD600” value (polymyxin B 1 µg/mL) stood at 0.699.
With `Cc1cccc(N2CCN(C(=O)c3cn(C4CC4)cc(C(=O)NCc4ccccc4)c3=O)CC2)c1C`, under “polymyxin B 0.75 µg/mL”, the “bacterial growth OD600” value was 0.002.
As for `COc1ccc(S(=O)(=O)NCC2CCCN(C(=O)CSc3ccccc3)C2)cc1` (stereo unspecified), the “bacterial growth OD600” value (polymyxin B 1 µg/mL) came to 0.929.
As to `CSc1cccc(CN2CC[C@@H](N3CCN(CCc4ccccc4)CC3)[C@H](O)C2)c1`, the “bacterial growth OD600” value (polymyxin B 1 µg/mL) amounted to 1.17.
Regarding `COc1cc(OC)c2nc(-c3cc4c(c(OC)c3)OCCN(C(=O)Cn3nc(C)cc3C)C4)cc(C)c2c1`, the “bacterial growth OD600” value (polymyxin B 0.75 µg/mL) worked out at 0.841.
As for `CCn1cc(CNC2CCCN(Cc3ccccc3F)C2)c(C)n1` (stereo unspecified), the “bacterial growth OD600” value (polymyxin B 0.75 µg/mL) turned out to be 0.995.
Turning to `Cc1cccc(C)c1OCc1cc(C(=O)N2CCN(C)C(=O)[C@@H]2C)no1`, the “bacterial growth OD600” value (polymyxin B 1 µg/mL) is 0.952.
Still for that read-out and setting: in the case of `O=C(CCc1nnc(CCc2c[nH]c3ccccc23)o1)N1CCCCCC1` it was 0.935.
Consider `Cn1cc(CCC(=O)NC2CC(=O)N(CCc3cccc(Cl)c3)C2)cn1` (stereo unspecified), for which the “bacterial growth OD600” value (polymyxin B 1 µg/mL) is 0.891.
Take `Cc1nc(N2CCCCCCC2)ncc1C(C)NC(=O)c1ccnn1C` (stereo unspecified): the “bacterial growth OD600” value (polymyxin B 1 µg/mL) turned out to be 0.873.
The same measure, in the same setting: with `OCCOc1cccc(CNC2CCCN(CC3CCCCC3)C2)c1` (stereo unspecified) the figure was 1.13; with `COc1cc(-c2nc(CN(CCO)Cc3ccccc3)c(C)o2)ccc1F`, 0.686; with `Cc1c(CC(=O)NCC2CC2)c2c(n1Cc1ccccc1)CCCC2=O`, 1.22.
On to `COc1cccc2c1OCC(CN(C)CC1CCN(Cc3ccc(C)o3)CC1)=C2`, for which the “bacterial growth OD600” value (polymyxin B 1 µg/mL) worked out at 0.834.
As to `O=C(c1cc(F)c(F)cc1F)N1CCCC(N2CCN(c3ccc(F)cc3)CC2)C1` (stereo unspecified), under “polymyxin B 1 µg/mL”, the “bacterial growth OD600” value turned out to be 0.908.
Turning to `Cc1noc(C)c1CC(=O)N1CCCC(Nc2ccc(F)c(F)c2)C1` (stereo unspecified), where the note is “polymyxin B 1 µg/mL”, the “bacterial growth OD600” value was 0.937.
Turning to `CCN(Cc1nccn1C)C(=O)c1ccc(N2CCCC(OC)C2)nc1` (stereo unspecified), the “bacterial growth OD600” value (polymyxin B 1 µg/mL) was determined as 1.01.
For `CCC1C(=O)NCCN1C(=O)CCc1nnc(Cc2cccc(C(F)(F)F)c2)o1` (stereo unspecified), the “bacterial growth OD600” value (polymyxin B 1 µg/mL) was 0.855.
In the case of `COc1cccc(CCC2CCCN(C(=O)c3csc(C)n3)C2)c1` (stereo unspecified), under “polymyxin B 0.75 µg/mL”, the “bacterial growth OD600” value was 0.872.
Regarding `Clc1cccc(-c2noc(CN3CCCC(c4ccccc4)C3)n2)c1` (stereo unspecified), the “bacterial growth OD600” value (polymyxin B 1 µg/mL) was 0.333.
The same measure, in the same setting: with `O=C(NCCc1cnn(-c2ccccc2)c1)C1CCC(=O)N(CCc2ccccn2)C1` (stereo unspecified) the figure was 1.22.
Turning to `O=C(CCn1cccn1)N1CCCC(CCc2ccccc2F)C1` (stereo unspecified), for the setting “polymyxin B 0.75 µg/mL”, the “bacterial growth OD600” value was 0.465.
As for `CC(C)CCCC1CN(C(=O)CCN2CCCC2=O)CCO1` (stereo unspecified), for the setting “polymyxin B 1 µg/mL”, the “bacterial growth OD600” value was found to be 0.899.
On the same count and under the same terms, in the case of `COC(=O)CCCNC(=O)c1cc(OC)ccc1OC1CCN(C(=O)C2CC2)CC1` it was 1.16.
Consider `COc1ccc(-c2cnnc(NCCSc3nccn3C)n2)cc1`, for which the “bacterial growth OD600” value (polymyxin B 0.75 µg/mL) was determined as 0.782.

These data come from the supplement of paper PMC12889115.
